Test results: patent US20240174714A1, “TREATMENT OF SKIN DISORDERS” (priority 2021, published 2024)
Values after ≈ are worked out from the molar mass of the structure shown.

Tested on: Staphylococcus epidermidis ATCC 12228
Assay: MIC broth microdilution, method 1
Assay type: cell-based
Conditions: ATCC12228, reference compound, read-out: MIC (Concurrent)

For `CN[C@H](CC(C)C)C(=O)N[C@H]1C(=O)N[C@@H](CC(N)=O)C(=O)N[C@H]2C(=O)N[C@H]3C(=O)N[C@H](C(=O)N[C@H](C(=O)O)c4cc(O)cc(O)c4-c4cc3ccc4O)[C@H](O)c3ccc(c(Cl)c3)Oc3cc2cc(c3O[C@@H]2O[C@H](CO)[C@@H](O)[C@H](O)[C@H]2O[C@H]2C[C@](C)(N)[C@H](O)[C@H](C)O2)Oc2ccc(cc2Cl)[C@H]1O` [Vancomycin, reference compound], the MIC was 1 µg/mL (≈ 0.69 µM).
